Test results reported in the supplement of paper PMC10849652.
The other results are listed elsewhere or left out.

Sequences of proteins named here, by UniProt entry; tags and fusion partners are left off. A change or cut given only in a name is not applied to a line headed by its entry.
UniProt P09417: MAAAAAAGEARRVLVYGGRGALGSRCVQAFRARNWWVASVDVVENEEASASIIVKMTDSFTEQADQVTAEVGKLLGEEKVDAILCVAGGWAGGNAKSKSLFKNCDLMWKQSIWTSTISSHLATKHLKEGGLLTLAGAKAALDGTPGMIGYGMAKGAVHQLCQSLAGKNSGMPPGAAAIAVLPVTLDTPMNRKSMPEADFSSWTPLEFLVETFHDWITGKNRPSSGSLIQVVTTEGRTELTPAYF
UniProt O00487, whole entry, looked up: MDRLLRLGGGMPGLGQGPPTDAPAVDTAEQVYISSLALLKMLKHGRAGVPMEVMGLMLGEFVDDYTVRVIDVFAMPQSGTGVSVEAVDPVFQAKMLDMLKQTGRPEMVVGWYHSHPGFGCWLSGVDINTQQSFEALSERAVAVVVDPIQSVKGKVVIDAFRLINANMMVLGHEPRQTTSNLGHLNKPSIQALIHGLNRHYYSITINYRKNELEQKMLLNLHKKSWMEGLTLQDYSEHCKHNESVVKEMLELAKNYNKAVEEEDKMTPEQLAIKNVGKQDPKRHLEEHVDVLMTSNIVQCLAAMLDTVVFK
UniProt Q9NR77: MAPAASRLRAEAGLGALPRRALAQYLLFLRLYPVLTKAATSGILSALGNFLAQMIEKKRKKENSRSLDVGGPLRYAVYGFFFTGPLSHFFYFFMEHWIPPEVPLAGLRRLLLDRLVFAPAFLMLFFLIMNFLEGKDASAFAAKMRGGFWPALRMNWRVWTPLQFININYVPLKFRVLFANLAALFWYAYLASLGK
UniProt P49721: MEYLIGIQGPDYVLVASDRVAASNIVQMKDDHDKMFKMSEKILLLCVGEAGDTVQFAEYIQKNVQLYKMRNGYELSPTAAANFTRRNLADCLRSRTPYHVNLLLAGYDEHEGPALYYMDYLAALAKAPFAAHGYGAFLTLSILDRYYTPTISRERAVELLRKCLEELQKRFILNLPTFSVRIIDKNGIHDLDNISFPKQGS
UniProt P25787: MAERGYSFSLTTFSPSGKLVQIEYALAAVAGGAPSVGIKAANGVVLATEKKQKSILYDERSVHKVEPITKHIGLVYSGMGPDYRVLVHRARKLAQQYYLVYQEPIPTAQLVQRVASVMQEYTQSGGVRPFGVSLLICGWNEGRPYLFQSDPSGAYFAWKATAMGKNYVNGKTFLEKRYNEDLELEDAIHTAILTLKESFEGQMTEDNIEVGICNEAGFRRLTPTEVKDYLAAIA
UniProt Q05209: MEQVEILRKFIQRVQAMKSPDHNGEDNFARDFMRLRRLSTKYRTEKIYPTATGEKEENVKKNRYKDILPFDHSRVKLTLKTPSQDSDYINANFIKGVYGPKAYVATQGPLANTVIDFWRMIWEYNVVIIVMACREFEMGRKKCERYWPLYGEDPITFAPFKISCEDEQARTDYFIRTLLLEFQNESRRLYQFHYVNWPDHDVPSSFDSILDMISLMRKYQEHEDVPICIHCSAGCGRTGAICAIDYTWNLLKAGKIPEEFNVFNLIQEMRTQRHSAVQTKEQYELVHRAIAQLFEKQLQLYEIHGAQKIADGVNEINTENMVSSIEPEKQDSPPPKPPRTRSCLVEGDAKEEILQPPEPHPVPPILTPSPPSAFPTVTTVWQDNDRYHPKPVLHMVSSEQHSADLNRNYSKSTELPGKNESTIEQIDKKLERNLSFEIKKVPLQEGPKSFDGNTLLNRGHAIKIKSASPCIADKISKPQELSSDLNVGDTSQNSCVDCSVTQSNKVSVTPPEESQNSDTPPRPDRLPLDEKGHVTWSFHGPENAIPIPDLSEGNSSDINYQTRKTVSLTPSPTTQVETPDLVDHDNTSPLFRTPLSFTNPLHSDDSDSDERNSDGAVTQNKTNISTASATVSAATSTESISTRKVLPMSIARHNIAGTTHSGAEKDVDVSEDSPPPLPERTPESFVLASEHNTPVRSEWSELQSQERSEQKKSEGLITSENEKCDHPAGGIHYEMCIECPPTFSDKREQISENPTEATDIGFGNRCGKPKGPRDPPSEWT
UniProt Q12974: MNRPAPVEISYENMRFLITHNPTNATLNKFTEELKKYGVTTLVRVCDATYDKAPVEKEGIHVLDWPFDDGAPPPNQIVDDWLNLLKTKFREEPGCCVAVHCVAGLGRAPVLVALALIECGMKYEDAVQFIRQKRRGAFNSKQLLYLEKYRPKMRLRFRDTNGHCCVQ
UniProt P28074: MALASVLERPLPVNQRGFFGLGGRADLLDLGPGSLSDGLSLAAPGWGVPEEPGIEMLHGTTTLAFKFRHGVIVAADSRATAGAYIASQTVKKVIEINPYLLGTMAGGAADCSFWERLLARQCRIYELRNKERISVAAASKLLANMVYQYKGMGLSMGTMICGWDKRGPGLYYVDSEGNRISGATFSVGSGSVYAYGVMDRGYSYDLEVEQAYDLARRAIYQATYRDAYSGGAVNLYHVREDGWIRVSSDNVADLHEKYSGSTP
UniProt P11216: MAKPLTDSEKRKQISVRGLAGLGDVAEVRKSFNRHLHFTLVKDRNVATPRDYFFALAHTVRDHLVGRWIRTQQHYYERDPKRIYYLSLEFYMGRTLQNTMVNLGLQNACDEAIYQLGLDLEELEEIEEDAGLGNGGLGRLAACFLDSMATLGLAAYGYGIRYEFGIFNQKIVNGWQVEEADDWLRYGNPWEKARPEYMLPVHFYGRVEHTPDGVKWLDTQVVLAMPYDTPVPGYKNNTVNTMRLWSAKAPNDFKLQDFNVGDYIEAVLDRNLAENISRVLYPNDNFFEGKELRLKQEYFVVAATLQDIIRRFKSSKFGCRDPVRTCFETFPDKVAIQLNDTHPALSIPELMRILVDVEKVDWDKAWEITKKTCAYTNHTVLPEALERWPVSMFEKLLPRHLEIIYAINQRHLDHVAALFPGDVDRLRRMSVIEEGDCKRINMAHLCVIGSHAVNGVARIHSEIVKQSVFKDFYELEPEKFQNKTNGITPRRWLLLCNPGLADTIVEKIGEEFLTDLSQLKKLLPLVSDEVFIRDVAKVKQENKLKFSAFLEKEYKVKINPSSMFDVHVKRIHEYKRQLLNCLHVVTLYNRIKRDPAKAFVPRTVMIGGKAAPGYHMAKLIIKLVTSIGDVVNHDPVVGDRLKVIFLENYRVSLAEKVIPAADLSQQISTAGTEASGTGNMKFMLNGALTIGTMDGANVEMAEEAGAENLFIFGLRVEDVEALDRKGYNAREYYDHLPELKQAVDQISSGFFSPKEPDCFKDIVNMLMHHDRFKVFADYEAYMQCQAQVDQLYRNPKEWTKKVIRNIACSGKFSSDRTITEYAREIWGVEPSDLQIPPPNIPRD
UniProt Q14997: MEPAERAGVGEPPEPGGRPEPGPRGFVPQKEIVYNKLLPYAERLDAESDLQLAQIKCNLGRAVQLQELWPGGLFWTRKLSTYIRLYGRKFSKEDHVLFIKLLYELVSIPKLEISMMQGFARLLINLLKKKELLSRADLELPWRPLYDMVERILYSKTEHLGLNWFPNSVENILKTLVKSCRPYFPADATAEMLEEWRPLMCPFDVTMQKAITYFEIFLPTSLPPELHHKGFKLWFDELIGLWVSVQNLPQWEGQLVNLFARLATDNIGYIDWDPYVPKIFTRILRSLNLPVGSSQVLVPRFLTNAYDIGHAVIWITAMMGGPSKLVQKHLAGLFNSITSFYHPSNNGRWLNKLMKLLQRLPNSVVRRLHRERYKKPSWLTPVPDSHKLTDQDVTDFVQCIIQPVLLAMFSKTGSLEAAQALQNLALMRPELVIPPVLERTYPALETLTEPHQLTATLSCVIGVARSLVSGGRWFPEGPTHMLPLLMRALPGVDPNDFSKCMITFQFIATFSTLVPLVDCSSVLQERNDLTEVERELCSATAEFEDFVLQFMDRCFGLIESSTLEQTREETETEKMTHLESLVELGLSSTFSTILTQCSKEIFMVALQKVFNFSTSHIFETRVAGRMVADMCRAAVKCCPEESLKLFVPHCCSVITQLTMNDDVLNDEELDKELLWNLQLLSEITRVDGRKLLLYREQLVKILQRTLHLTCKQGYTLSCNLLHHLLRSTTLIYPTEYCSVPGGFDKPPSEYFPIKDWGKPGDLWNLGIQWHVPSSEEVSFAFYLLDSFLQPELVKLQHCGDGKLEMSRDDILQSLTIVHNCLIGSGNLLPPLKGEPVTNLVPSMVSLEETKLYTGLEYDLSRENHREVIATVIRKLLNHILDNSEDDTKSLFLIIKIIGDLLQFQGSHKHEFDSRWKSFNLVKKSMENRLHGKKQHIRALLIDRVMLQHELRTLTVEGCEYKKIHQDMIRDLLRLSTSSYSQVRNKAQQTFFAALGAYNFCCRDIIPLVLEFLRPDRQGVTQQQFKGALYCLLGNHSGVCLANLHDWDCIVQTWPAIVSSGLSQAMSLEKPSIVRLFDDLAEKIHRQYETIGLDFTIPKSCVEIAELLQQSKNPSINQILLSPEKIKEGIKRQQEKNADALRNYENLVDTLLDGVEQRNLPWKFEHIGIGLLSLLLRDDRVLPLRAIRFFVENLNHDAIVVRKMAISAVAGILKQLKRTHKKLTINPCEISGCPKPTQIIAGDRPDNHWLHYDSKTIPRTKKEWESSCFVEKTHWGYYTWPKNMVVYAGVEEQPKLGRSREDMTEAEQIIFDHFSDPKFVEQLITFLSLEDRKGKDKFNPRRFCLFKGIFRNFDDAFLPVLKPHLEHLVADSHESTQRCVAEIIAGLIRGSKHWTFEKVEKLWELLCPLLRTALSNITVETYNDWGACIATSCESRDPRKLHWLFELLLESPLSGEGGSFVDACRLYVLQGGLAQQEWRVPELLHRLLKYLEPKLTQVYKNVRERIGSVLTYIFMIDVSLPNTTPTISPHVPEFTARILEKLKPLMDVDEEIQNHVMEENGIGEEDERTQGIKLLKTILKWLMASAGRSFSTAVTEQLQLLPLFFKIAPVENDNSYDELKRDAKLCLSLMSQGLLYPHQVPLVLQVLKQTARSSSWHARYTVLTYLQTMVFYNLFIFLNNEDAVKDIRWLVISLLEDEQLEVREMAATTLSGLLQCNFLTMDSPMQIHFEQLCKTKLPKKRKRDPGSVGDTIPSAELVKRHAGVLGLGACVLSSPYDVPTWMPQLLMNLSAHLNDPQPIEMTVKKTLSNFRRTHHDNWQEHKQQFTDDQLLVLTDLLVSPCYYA
UniProt P32322: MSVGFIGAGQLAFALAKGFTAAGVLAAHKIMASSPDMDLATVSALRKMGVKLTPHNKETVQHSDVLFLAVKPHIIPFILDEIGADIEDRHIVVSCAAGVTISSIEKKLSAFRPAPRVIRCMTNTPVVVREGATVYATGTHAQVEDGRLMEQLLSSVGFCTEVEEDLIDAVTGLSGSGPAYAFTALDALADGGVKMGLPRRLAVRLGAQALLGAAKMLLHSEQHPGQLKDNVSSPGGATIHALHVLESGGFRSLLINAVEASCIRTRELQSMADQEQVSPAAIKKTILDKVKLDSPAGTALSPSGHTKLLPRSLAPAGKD
UniProt Q14671: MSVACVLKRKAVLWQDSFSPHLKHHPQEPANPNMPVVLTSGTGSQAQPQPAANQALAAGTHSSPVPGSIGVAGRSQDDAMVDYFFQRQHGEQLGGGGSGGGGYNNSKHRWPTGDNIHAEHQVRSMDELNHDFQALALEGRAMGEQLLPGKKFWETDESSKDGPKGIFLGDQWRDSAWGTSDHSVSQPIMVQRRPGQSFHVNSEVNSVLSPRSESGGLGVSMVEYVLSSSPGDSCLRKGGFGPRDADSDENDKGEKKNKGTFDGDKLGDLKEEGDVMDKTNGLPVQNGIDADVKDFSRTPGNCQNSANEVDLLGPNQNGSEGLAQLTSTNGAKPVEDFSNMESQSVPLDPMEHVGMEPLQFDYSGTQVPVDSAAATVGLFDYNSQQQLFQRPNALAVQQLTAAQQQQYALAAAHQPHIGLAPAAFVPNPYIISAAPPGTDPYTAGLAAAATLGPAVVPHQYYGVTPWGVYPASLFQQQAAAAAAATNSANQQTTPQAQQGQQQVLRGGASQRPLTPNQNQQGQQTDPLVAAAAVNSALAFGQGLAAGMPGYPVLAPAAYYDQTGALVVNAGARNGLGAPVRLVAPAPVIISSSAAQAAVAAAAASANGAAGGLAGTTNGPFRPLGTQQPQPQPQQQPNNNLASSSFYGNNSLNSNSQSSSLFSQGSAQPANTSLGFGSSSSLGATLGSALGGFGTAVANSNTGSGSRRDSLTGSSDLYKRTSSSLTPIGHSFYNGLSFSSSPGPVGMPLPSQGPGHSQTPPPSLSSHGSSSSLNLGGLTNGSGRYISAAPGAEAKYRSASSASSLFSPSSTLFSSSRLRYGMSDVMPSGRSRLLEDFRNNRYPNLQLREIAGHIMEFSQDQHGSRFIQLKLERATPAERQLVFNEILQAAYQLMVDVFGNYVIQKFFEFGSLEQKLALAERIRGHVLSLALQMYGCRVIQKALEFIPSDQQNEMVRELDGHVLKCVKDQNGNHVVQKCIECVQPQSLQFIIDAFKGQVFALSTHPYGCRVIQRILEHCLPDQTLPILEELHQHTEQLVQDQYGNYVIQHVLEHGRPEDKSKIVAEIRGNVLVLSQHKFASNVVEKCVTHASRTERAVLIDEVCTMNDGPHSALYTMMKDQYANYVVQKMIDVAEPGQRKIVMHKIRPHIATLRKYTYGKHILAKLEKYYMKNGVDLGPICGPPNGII

Tests used:
Assay in all cases: log2 fold change, soluble protein after heating vs DMSO (PISA); higher = thermal stabilisation; K562 cells, 10 uM, 30 min; active = over 0.2 and 3.5 SD of the protein, either way, in both replicates (recomputed)
[1] = compound: NC(=O)Nc1cc(-c2cccc(F)c2)sc1C(=O)N[C@H]1CCCNC1
Method in brief: (§1)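 Values are thermal stability changes relative to control samples and are taken from duplicates. They are stated as log2 fold changes. Before quantification by TMTpro 16plex LC-MS/MS with equalised channel sums, K562 cells at 2×10^6 cells/mL were treated with 10 μM compound for 30 min, heated in aliquots for 3 min across 48°C-58°C, pooled, extracted in PBS with 0.5% NP-40 at 4°C, and centrifuged at 21,000xg for 90 min to give the soluble supernatant.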

[2] = compound: NC(=O)c1cnc(N[C@@H]2CCCC[C@@H]2N)nc1Nc1cccc(-n2nccn2)c1
Method in brief: as §1

[3] = compound: NC1(c2ccc(-c3nc4ccn5c(=O)[nH]nc5c4cc3-c3ccccc3)cc2)CCC1
Method in brief: as §1

[4] = compound: NCC(=O)Nc1ccc(-n2nc(C(F)(F)F)cc2-c2ccc3c(ccc4ccccc43)c2)cc1
Method in brief: as §1

entinostat = compound: Nc1ccccc1NC(=O)c1ccc(CNC(=O)OCc2cccnc2)cc1 [entinostat]
Method in brief: as §1

vorinostat = compound: O=C(CCCCCCC(=O)Nc1ccccc1)NO [vorinostat]
Method in brief: as §1

citarinostat = compound: O=C(CCCCCCNC(=O)c1cnc(N(c2ccccc2)c2ccccc2Cl)nc1)NO [citarinostat]
Method in brief: as §1

silmitasertib = compound: O=C(O)c1ccc2c(c1)nc(Nc1cccc(Cl)c1)c1ccncc12 [silmitasertib]
Method in brief: as §1

[5] = compound: O=C1NC(=O)C(c2cnc3ccccn23)=C1c1cn2c3c(cc(F)cc13)CN(C(=O)N1CCCCC1)CC2
Method in brief: as §1

[6] = compound: c1cc(OCCN2CCCCC2)cc(-c2n[nH]c3ccc(-c4nnc[nH]4)cc23)c1
Method in brief: as §1

Measured: log2 fold change

PTTG1 (UniProt O95997)
inactive: [1] -0.006 | [2] -0.098 | [3] -0.015 | [4] -0.071 | entinostat 0.035 | vorinostat -0.043 | citarinostat 0.027 | silmitasertib -0.002 | [5] -0.023 | [6] -0.128

PTPN23 (UniProt Q9H3S7)
inactive: [1] -0.039 | [2] 0.011 | [3] -0.081 | [4] -0.063 | entinostat 0.06 | vorinostat 0.05 | citarinostat 0.05 | silmitasertib 0.037 | [5] -0.065 | [6] -0.024

PSAP isoform 3 (UniProt P07602)
inactive: [1] -0.018 | [2] -0.023 | [3] 0.02 | [4] 0.037 | entinostat 0.061 | vorinostat -0.1 | citarinostat -0.025 | silmitasertib -0.009 | [5] 0.001 | [6] -0.045

QDPR (UniProt P09417)
inactive: [1] -0.011 | [2] -0.012 | [3] -0.012 | [4] 0.016 | entinostat -0.019 | vorinostat -0.026 | citarinostat 0.029 | silmitasertib -0.034 | [5] -0.02 | [6] -0.052

PSMD14 (UniProt O00487)
inactive: [1] 0.025 | [2] 0.007 | [3] -0.021 | [4] 0.038 | entinostat 0.008 | vorinostat 0.014 | citarinostat 0.009 | silmitasertib -0.01 | [5] 0.088 | [6] -0.083

PXMP2 (UniProt Q9NR77)
inactive: [1] 0.022 | [2] 0.04 | [3] -0.031 | [4] 0.021 | entinostat 0.019 | vorinostat -0.053 | citarinostat 0.026 | silmitasertib -0.002 | [5] -0.003 | [6] -0.043

PSMD10 (UniProt O75832)
inactive: [1] -0.01 | [2] -0.074 | [3] -0.099 | [4] 0.022 | entinostat 0.057 | vorinostat 0.039 | citarinostat 0.083 | silmitasertib 0.068 | [5] -0.107 | [6] 0.016

PSMD1 (UniProt Q99460)
inactive: [1] 0.086 | [2] 0.007 | [3] -0.013 | [4] 0.068 | entinostat 0.006 | vorinostat 0.013 | citarinostat 0.014 | silmitasertib -0.019 | [5] 0.094 | [6] -0.057

PUDP isoform 4 (UniProt Q08623)
inactive: [1] -0.011 | [2] 0.007 | [3] -0.041 | [4] 0.094 | entinostat 0.017 | vorinostat -0.001 | citarinostat 0.046 | silmitasertib -0.038 | [5] -0.13 | [6] 0.023

QSOX2 (UniProt Q6ZRP7)
inactive: [1] -0.003 | [2] -0.027 | [3] -0.049 | [4] 0 | entinostat 0.023 | vorinostat 0 | citarinostat 0.024 | silmitasertib 0.074 | [5] 0.063 | [6] -0.095

PSMB2 (UniProt P49721)
inactive: [1] -0.1 | [2] -0.001 | [3] 0.015 | [4] 0.065 | entinostat 0.02 | vorinostat -0.061 | citarinostat 0.026 | silmitasertib 0.036 | [5] 0.038 | [6] -0.044

PSAT1 (UniProt Q9Y617)
inactive: [1] 0.037 | [2] 0.015 | [3] -0.006 | [4] 0.064 | entinostat 0.003 | vorinostat -0.023 | citarinostat 0.006 | silmitasertib -0.027 | [5] -0.009 | [6] -0.012

Two entries drawn at random from those above, as already listed:
QSOX2 (UniProt Q6ZRP7)
inactive: [1] -0.003 | [2] -0.027 | [3] -0.049 | [4] 0 | entinostat 0.023 | vorinostat 0 | citarinostat 0.024 | silmitasertib 0.074 | [5] 0.063 | [6] -0.095

PSAT1 (UniProt Q9Y617)
inactive: [1] 0.037 | [2] 0.015 | [3] -0.006 | [4] 0.064 | entinostat 0.003 | vorinostat -0.023 | citarinostat 0.006 | silmitasertib -0.027 | [5] -0.009 | [6] -0.012

Carrying on.

PSMA1 isoform 2 (UniProt P25786)
inactive: [1] 0.039 | [2] 0.054 | [3] 0.044 | [4] 0.066 | entinostat -0.022 | vorinostat -0.003 | citarinostat -0.034 | silmitasertib 0.004 | [5] 0.015 | [6] -0.054

PSIP1 (UniProt O75475)
inactive: [1] 0.149 | [2] -0.015 | [3] 0.155 | [4] 0.052 | entinostat -0.012 | vorinostat 0.013 | citarinostat -0.12 | silmitasertib 0.017 | [5] 0.114 | [6] -0.118

PSMA7 isoform 2 (UniProt O14818)
inactive: [1] -0.401 | [2] -0.106 | [3] 0.108 | [4] -0.492 | entinostat -0.299 | citarinostat -0.316 | silmitasertib 0.272 | [5] -0.185 | [6] -0.11

PSMB6 (UniProt P28072)
inactive: [1] 0.024 | [2] 0.006 | [3] 0.046 | [4] 0.044 | entinostat -0.054 | vorinostat -0.093 | citarinostat -0.046 | silmitasertib -0.004 | [5] 0.044 | [6] -0.034

PSMA2 (UniProt P25787)
inactive: [1] 0.046 | [2] 0.02 | [3] 0.04 | [4] 0.04 | entinostat -0.026 | vorinostat -0.021 | citarinostat -0.023 | silmitasertib -0.033 | [5] 0.02 | [6] -0.015

PSMB10 (UniProt P40306)
inactive: [1] 0.003 | [2] -0.004 | [3] 0.033 | [4] -0.003 | entinostat -0.074 | citarinostat 0.026 | silmitasertib -0.117 | [6] -0.046

PSMD6 (UniProt Q15008)
inactive: [1] -0.028 | [2] 0.037 | [3] -0.024 | [4] 0.082 | entinostat -0.045 | vorinostat -0.001 | citarinostat -0.017 | silmitasertib 0.011 | [5] 0.039 | [6] -0.063

PTPN12 (UniProt Q05209)
inactive: [1] 0.037 | [2] -0.023 | [3] -0.1 | [4] -0.012 | entinostat 0.038 | vorinostat -0.01 | citarinostat 0.019 | silmitasertib 0.163 | [5] 0.014 | [6] -0.015

PSD2 (UniProt Q9BQI7)
inactive: [1] 0.058 | [2] -0.066 | [3] 0.014 | [4] -0.275 | entinostat 0.152 | silmitasertib 0 | [5] -0.246

PTP4A2 (UniProt Q12974)
inactive: [1] -0.161 | [2] -0.286 | [3] 0.079 | [4] -0.023 | entinostat 0.011 | citarinostat 0.016 | silmitasertib 0.052 | [5] -0.168 | [6] -0.045

PSME1 (UniProt Q06323)
inactive: [1] -0.003 | [2] -0.021 | [3] -0.036 | [4] 0 | entinostat 0.002 | vorinostat 0.031 | citarinostat -0.006 | silmitasertib -0.049 | [5] 0 | [6] -0.025

PSMB4 (UniProt P28070)
inactive: [1] 0.029 | [2] -0.01 | [3] 0.068 | [4] 0.01 | entinostat -0.036 | vorinostat -0.019 | citarinostat 0.008 | silmitasertib 0.002 | [5] 0.022 | [6] -0.014

PTPN2 (UniProt P17706)
inactive: [1] -0.218 | [2] 0.047 | [3] -0.075 | [4] -0.076 | entinostat 0.049 | vorinostat 0.107 | citarinostat 0.02 | silmitasertib 0.118 | [5] -0.091 | [6] 0.029

PTK2B (UniProt Q14289)
inactive: [1] 0.076 | [2] 0.091 | [3] -0.13 | [4] -0.092 | entinostat 0.128 | vorinostat 0.011 | silmitasertib 0.054 | [5] 0.072

PUF60 (UniProt Q9UHX1)
inactive: [1] -0.112 | [2] -0.029 | [3] -0.035 | [4] -0.132 | entinostat 0.049 | vorinostat 0.028 | citarinostat 0.079 | silmitasertib -0.098 | [5] -0.025 | [6] -0.092

PSMB5 (UniProt P28074)
inactive: [1] 0.118 | [2] 0.05 | [3] 0.038 | [4] 0.121 | entinostat 0.017 | vorinostat -0.019 | citarinostat 0.032 | silmitasertib -0.02 | [5] 0.071 | [6] -0.023

PYGB (UniProt P11216)
inactive: [1] 0.209 | [2] -0.077 | [3] -0.018 | [4] -0.041 | entinostat -0.003 | vorinostat 0.063 | citarinostat 0.033 | silmitasertib -0.005 | [5] -0.105 | [6] -0.105

PSRC1 (UniProt Q6PGN9)
inactive: [1] -0.033 | [2] -0.028 | [3] 0.039 | [4] -0.017 | entinostat -0.006 | vorinostat 0.039 | citarinostat -0.004 | silmitasertib -0.01 | [5] 0.052 | [6] -0.102

PSME4 (UniProt Q14997)
inactive: [1] 0.047 | [2] -0.054 | [3] -0.204 | [4] -0.03 | entinostat 0.011 | vorinostat 0.127 | citarinostat 0.047 | silmitasertib -0.007 | [5] 0.02 | [6] -0.092

PYCR1 isoform 3 (UniProt P32322)
inactive: [1] 0.045 | [2] 0.051 | [3] -0.044 | entinostat -0.005 | vorinostat -0.013 | citarinostat 0.032 | silmitasertib -0.028 | [5] 0.037 | [6] 0.005

PTPRN2 isoform 3 (UniProt Q92932)
inactive: [1] -0.452 | [2] -0.414 | [3] -0.148 | entinostat -0.121 | citarinostat -0.184 | silmitasertib -0.053 | [5] -0.096 | [6] 0.179

PUM1 isoform 3 (UniProt Q14671)
inactive: [1] 0 | [2] -0.032 | [3] -0.082 | [4] -0.015 | entinostat 0.034 | vorinostat 0.108 | citarinostat -0.008 | silmitasertib 0.01 | [5] -0.028 | [6] -0.007
